From publication PMC3985631
The exact form of at least one protein or probe is not confirmed. A weaker result is weaker than the reference pair of the same experiment. At least one verdict rests on a figure or table, not on a statement of the authors.

How the values were obtained:
Assay in all cases: filter binding
Conditions in all cases: Filter binding: 50 mM phosphate, 50 mM imidazole, 10 mM beta-mercaptoethanol, pH 7.5, room temperature, 30 min, 10 pmol 32P-labelled nucleic acid, recombinant protein, residues 1-259, label: 5'-32P
hN12 F147A-F149A (human) = hN12 F147A-F149A (human) (UniProt Q13148)
hN12 F149A (human) = hN12 F149A (human) (UniProt Q13148)
hN12 F231A (human) = hN12 F231A (human) (UniProt Q13148)
hN12 F229A (human) = hN12 F229A (human) (UniProt Q13148)
hN12 F147A (human) = hN12 F147A (human) (UniProt Q13148)
hN12 F229A-F231A (human) = hN12 F229A-F231A (human) (UniProt Q13148)
[1] = RRM1 mutants ~20-fold reduced, single-stranded DNA
[2] = RRM2 mutants 2- to 8-fold reduced, single-stranded DNA

Measured: binding result

TGTGTGTGTGTGTGTGTGTGTGTGTGTGTG [(TG)15 DNA]
binds more weakly: hN12 F147A-F149A (human); [1] | hN12 F149A (human); [1] | hN12 F231A (human); [2] | hN12 F229A (human); [2] | hN12 F147A (human); [1] | hN12 F229A-F231A (human); [2]

UGUGUGUGUGUGUGUGUGUGUGUGUGUGUG [(UG)15 RNA]
binds more weakly: hN12 F147A-F149A (human); RRM1 mutants ~50-fold reduced | hN12 F149A (human); RRM1 mutants ~50-fold reduced | hN12 F231A (human); RRM2 mutants ~2-fold reduced | hN12 F229A (human); RRM2 mutants ~2-fold reduced | hN12 F147A (human); RRM1 mutants ~50-fold reduced | hN12 F229A-F231A (human); RRM2 mutants ~2-fold reduced
